From the supplement of paper PMC4604168 (melanoma cell lines) come the findings set out here.

The list shows a part of the results. Single values are uncertain, as repeats are few or missing.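 The apoptosis fraction was the count of cleaved-PARP antibody-stained nuclei relative to all DNA-stained nuclei, imaged in 1,536-well plates. Screening doses were set so most cells survived, and baseline and induced cleaved-PARP levels vary greatly across cell lines.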

In this experiment the test system is RPMI7951. Nature of the experiment: cleaved PARP positive nuclei fraction relative to DMSO control; melanoma cells; higher = more apoptosis. The conditions noted are these: library dose: low library concentration; 72 h.
As for `Cc1cn(-c2cc(NC(=O)c3ccc(C)c(Nc4nccc(-c5cccnc5)n4)c3)cc(C(F)(F)F)c2)cn1` [nilotinib] + Cc1ccc(NC(=O)c2cccc(N(C)C)c2)cc1NC(=O)c1ccc(O)cc1 [ZM336372] (first compound 0.2 µM, partner dose 2 µM), the “cleaved PARP positive nuclei fraction” value was found to be 35.6%.
The value for `CC[C@]1(O)C[C@H]2CN(CCc3c([nH]c4ccccc34)[C@@](C(=O)OC)(c3cc4c(cc3OC)N(C=O)[C@H]3[C@@](O)(C(=O)OC)[C@H](OC(C)=O)[C@]5(CC)C=CCN6CC[C@]43[C@@H]65)C2)C1` [vincristine] + O=C(Nc1cccc(Cl)c1)Nc1ncc(CCNc2ncnc3ccsc23)s1 [SNS314] (first compound 0.0001 µM, partner dose 0.0008 µM) was 106%; that for `Cc1ccc(Nc2nccc(N(C)c3ccc4c(C)n(C)nc4c3)n2)cc1S(N)(=O)=O` [Pazopanib] + O=C(Nc1cccc(Cl)c1)Nc1ncc(CCNc2ncnc3ccsc23)s1 [SNS314] (first compound 0.4 µM, partner dose 0.0008 µM) was 262%.
The value for `CC[C@]1(O)C[C@H]2CN(CCc3c([nH]c4ccccc34)[C@@](C(=O)OC)(c3cc4c(cc3OC)N(C=O)[C@H]3[C@@](O)(C(=O)OC)[C@H](OC(C)=O)[C@]5(CC)C=CCN6CC[C@]43[C@@H]65)C2)C1` [vincristine] + COc1ccc(-c2ccc3c(N4CCOCC4)nc(N4C[C@@H](C)O[C@@H](C)C4)nc3n2)cc1CO [KU0063794] (first compound 0.0001 µM, partner dose 0.02 µM) was 50.8%; that for `O=c1[nH]nc(Sc2ncc([N+](=O)[O-])s2)n1-c1ccc2c(c1)OCCO2` + COc1cc(Nc2ncc(F)c(Nc3ccc4c(n3)NC(=O)C(C)(C)O4)n2)cc(OC)c1OC [Tamatinib] (first compound 0.2 µM, partner dose 0.4 µM) was 80.9%.
The value for `O=C(/C=C/c1cccnc1)NCCCCC1CCN(C(=O)c2ccccc2)CC1` + Cc1cc(N2CCOCC2)cc2[nH]c(-c3c(NC[C@@H](O)c4cccc(Cl)c4)cc[nH]c3=O)nc12 [BMS536924] (first compound 0.01 µM, partner dose 0.2 µM) was 38.3%; that for `Cc1cc(Nc2cc(N3CCN(C)CC3)nc(Sc3ccc(NC(=O)C4CC4)cc3)n2)n[nH]1` [Tozasertib] + CC1(C)NC(=O)N(c2ccc([N+](=O)[O-])c(C(F)(F)F)c2)C1=O [nilutamide] (first compound 0.006 µM, partner dose 1 µM) was 49%.
As for `O=C(/C=C/c1cccnc1)NCCCCC1CCN(C(=O)c2ccccc2)CC1` + O=S(=O)(c1ccccc1)N(CC(F)(F)F)c1ccc(C(O)(C(F)(F)F)C(F)(F)F)cc1 [T0901317] (first compound 0.01 µM, partner dose 1.4 µM), the “cleaved PARP positive nuclei fraction” value was 32.7%.
In the case of `CC[C@]1(O)C[C@H]2CN(CCc3c([nH]c4ccccc34)[C@@](C(=O)OC)(c3cc4c(cc3OC)N(C=O)[C@H]3[C@@](O)(C(=O)OC)[C@H](OC(C)=O)[C@]5(CC)C=CCN6CC[C@]43[C@@H]65)C2)C1` [vincristine] + Cc1cc(N2CCOCC2)cc2[nH]c(-c3c(NC[C@@H](O)c4cccc(Cl)c4)cc[nH]c3=O)nc12 [BMS536924] (first compound 0.0001 µM, partner dose 0.2 µM) it was 124%; in that of `O=c1[nH]nc(Sc2ncc([N+](=O)[O-])s2)n1-c1ccc2c(c1)OCCO2` + O=c1cc(-c2cccc3c2Sc2ccccc2S3)oc(N2CCOCC2)c1 [KU55933] (first compound 0.2 µM, partner dose 1 µM), 48.8%.
For `COc1cc([C@@H]2c3cc4c(cc3[C@@H](O[C@@H]3O[C@@H]5CO[C@@H](C)O[C@H]5[C@H](O)[C@H]3O)[C@H]3COC(=O)[C@H]23)OCO4)cc(OC)c1O` [etoposide] + O=C1NC(=O)/C(=C/c2ccc(-c3ccc(F)cc3O)o2)S1 [AS252424] (first compound 0.02 µM, partner dose 1 µM), the “cleaved PARP positive nuclei fraction” value stood at 117%.
Turning to `Cc1cn(-c2cc(NC(=O)c3ccc(C)c(Nc4nccc(-c5cccnc5)n4)c3)cc(C(F)(F)F)c2)cn1` [nilotinib] + CCCCCCCCCCCC1=C(O)C(=O)C=C(O)C1=O [Embelin] (first compound 0.2 µM, partner dose 1.2 µM), the “cleaved PARP positive nuclei fraction” value was 199%.
On to `O=c1[nH]nc(Sc2ncc([N+](=O)[O-])s2)n1-c1ccc2c(c1)OCCO2` + CCCCCCCCCCCC1=C(O)C(=O)C=C(O)C1=O [Embelin] (first compound 0.2 µM, partner dose 1.2 µM), for which the “cleaved PARP positive nuclei fraction” value worked out at 54%.
In the case of `O=c1[nH]nc(Sc2ncc([N+](=O)[O-])s2)n1-c1ccc2c(c1)OCCO2` + O=C(Nc1cccc(Cl)c1)Nc1ncc(CCNc2ncnc3ccsc23)s1 [SNS314] (first compound 0.2 µM, partner dose 0.0008 µM) it was 231%; in that of `CCCCCCCCCCCCCCCCCCOP(=O)([O-])OC1CC[N+](C)(C)CC1` [Perifosine] + NC(=O)Nc1cc(-c2cccc(F)c2)sc1C(=O)N[C@H]1CCCNC1 [AZD7762] (first compound 0.4 µM, partner dose 0.02 µM), 163%.
As for `COc1cc([C@@H]2c3cc4c(cc3[C@@H](O[C@@H]3O[C@@H]5CO[C@@H](C)O[C@H]5[C@H](O)[C@H]3O)[C@H]3COC(=O)[C@H]23)OCO4)cc(OC)c1O` [etoposide] + COc1cc(N2CCC(N3CCN(C)CC3)CC2)ccc1Nc1ncc(Cl)c(Nc2ccccc2S(=O)(=O)C(C)C)n1 [NVP-TAE684] (first compound 0.02 µM, partner dose 0.08 µM), the “cleaved PARP positive nuclei fraction” value was 102%.
The value for `Cc1cc(Nc2cc(N3CCN(C)CC3)nc(Sc3ccc(NC(=O)C4CC4)cc3)n2)n[nH]1` [Tozasertib] + COc1cc(N2CCC(N3CCN(C)CC3)CC2)ccc1Nc1ncc(Cl)c(Nc2ccccc2S(=O)(=O)C(C)C)n1 [NVP-TAE684] (first compound 0.006 µM, partner dose 0.08 µM) was 76.6%; that for `CCCCCCCCCCCCCCCCCCOP(=O)([O-])OC1CC[N+](C)(C)CC1` [Perifosine] + O=S(=O)(c1ccccc1)N(CC(F)(F)F)c1ccc(C(O)(C(F)(F)F)C(F)(F)F)cc1 [T0901317] (first compound 0.4 µM, partner dose 1.4 µM) was 118%.
In the case of `CC[C@]1(O)C[C@H]2CN(CCc3c([nH]c4ccccc34)[C@@](C(=O)OC)(c3cc4c(cc3OC)N(C=O)[C@H]3[C@@](O)(C(=O)OC)[C@H](OC(C)=O)[C@]5(CC)C=CCN6CC[C@]43[C@@H]65)C2)C1` [vincristine] + Cn1cncc1[C@@](N)(c1ccc(Cl)cc1)c1ccc2c(c1)c(-c1cccc(Cl)c1)cc(=O)n2C [tipifarnib] (first compound 0.0001 µM, partner dose 0.01 µM) it was 185%.
`Cc1cn(-c2cc(NC(=O)c3ccc(C)c(Nc4nccc(-c5cccnc5)n4)c3)cc(C(F)(F)F)c2)cn1` [nilotinib] + CN(NC(=O)CC(=O)NN(C)C(=S)c1ccccc1)C(=S)c1ccccc1 [STA4783] (first compound 0.2 µM, partner dose 0.006 µM): the “cleaved PARP positive nuclei fraction” value was determined as 47.1%.
On to `O=C(/C=C/c1cccnc1)NCCCCC1CCN(C(=O)c2ccccc2)CC1` + O=C(Nc1ccccc1)c1cc([N+](=O)[O-])ccc1Cl [GW9662] (first compound 0.01 µM, partner dose 2 µM), for which the “cleaved PARP positive nuclei fraction” value was determined as 144%.
The value for `CC[C@]1(O)C[C@H]2CN(CCc3c([nH]c4ccccc34)[C@@](C(=O)OC)(c3cc4c(cc3OC)N(C=O)[C@H]3[C@@](O)(C(=O)OC)[C@H](OC(C)=O)[C@]5(CC)C=CCN6CC[C@]43[C@@H]65)C2)C1` [vincristine] + O=c1cc(-c2cccc3c2Sc2ccccc2S3)oc(N2CCOCC2)c1 [KU55933] (first compound 0.0001 µM, partner dose 1 µM) was 231%; that for `N#CC[C@H](C1CCCC1)n1cc(-c2ncnc3[nH]ccc23)cn1` [ruxolitinib] + NCC(=O)Nc1ccc(-n2nc(C(F)(F)F)cc2-c2ccc3c(ccc4ccccc43)c2)cc1 [OSU03012] (first compound 1 µM, partner dose 1 µM) was 27.3%; that for `O=c1[nH]nc(Sc2ncc([N+](=O)[O-])s2)n1-c1ccc2c(c1)OCCO2` + CC(C)CCN1c2nc(Nc3cc(F)c(O)c(F)c3)ncc2N(C)C(=O)C1C [BID1870] (first compound 0.2 µM, partner dose 0.2 µM) was 61.6%.
With `Cc1cn(-c2cc(NC(=O)c3ccc(C)c(Nc4nccc(-c5cccnc5)n4)c3)cc(C(F)(F)F)c2)cn1` [nilotinib] + O=C(Nc1cccc(Cl)c1)Nc1ncc(CCNc2ncnc3ccsc23)s1 [SNS314] (first compound 0.2 µM, partner dose 0.0008 µM), the “cleaved PARP positive nuclei fraction” value was found to be 91.4%.
Consider `Cc1ccc(Nc2nccc(N(C)c3ccc4c(C)n(C)nc4c3)n2)cc1S(N)(=O)=O` [Pazopanib] + O=S(=O)(c1ccccc1)N(CC(F)(F)F)c1ccc(C(O)(C(F)(F)F)C(F)(F)F)cc1 [T0901317] (first compound 0.4 µM, partner dose 1.4 µM), for which the “cleaved PARP positive nuclei fraction” value is 99.9%.
Regarding `CCCCCCCCCCCCCCCCCCOP(=O)([O-])OC1CC[N+](C)(C)CC1` [Perifosine] + CC(C)(C)c1cnc(CSc2cnc(NC(=O)C3CCNCC3)s2)o1 [SNS-032] (first compound 0.4 µM, partner dose 0.01 µM), the “cleaved PARP positive nuclei fraction” value was 347%.
